Structures are written as SMILES. This is one part of the list. Rule as the data show it: active = 150% or more and inactive = the rest. Repeats are few or missing, and single values can be far off.

For the experiment, the system named is Staphylococcus aureus JE2-lux inside RAW 264.7 macrophages. In words: intracellular bacterial bioluminescence relative to DMSO vehicle; higher = higher intracellular bacterial metabolic activity. To be noted: 10 µM; treatment time 4 h; gentamicin 50 µg/ml.
For the compound `Cc1cnn(Cc2ccccc2)c1NC(=O)c1ncoc1-c1ccc(F)cc1`, the intracellular bacterial bioluminescence was inactive: 89.6%.

Consider `Brc1cccc2sc(N3CCOCC3)nc12`, for which the intracellular bacterial bioluminescence was inactive: 101%.

In the case of `CC(=O)Nc1ccc(C(O)CN2CCC3(CC2)CC(O)c2cc(C)c(C)cc2O3)cc1` (configuration not stated), the intracellular bacterial bioluminescence is inactive: 130%.

Turning to `Cc1ccc2c(c1)/C(=N/NC(=O)CCCCCC(=O)N/N=C1/C(=O)Nc3ccc(C)cc31)C(=O)N2`, the intracellular bacterial bioluminescence was inactive: 108%.

Regarding `CCOC(=O)c1ccsc1NC(=O)c1ccc2ncsc2c1`, the intracellular bacterial bioluminescence was inactive: 91.6%.

For `O=C1CC(c2nc3ccccc3[nH]2)CN1c1cccc(C(F)(F)F)c1` (configuration not stated), the intracellular bacterial bioluminescence was inactive: 44.3%.

Consider `CCN1CCN(c2ccc(N3CCN(C(=O)c4ccc(C(F)(F)F)cc4)CC3)nn2)CC1`, for which the intracellular bacterial bioluminescence was inactive: 116%.

As for `Cc1nc(OCC(=O)NC2CCS(=O)(=O)C2)c2c(C)c(C)oc2n1` (configuration not stated), the intracellular bacterial bioluminescence was inactive: 108%.

Take `Cc1oc(-c2ccno2)cc1S(=O)(=O)N1CCN(c2ccc(F)cc2)CC1`: the intracellular bacterial bioluminescence is inactive: 105%.

Take `O=C(OCc1ccco1)c1cc2cc(Br)ccc2oc1=O`: the intracellular bacterial bioluminescence was inactive: 133%.

For `CC1CN(C(=O)Cn2cnc3c(cnn3-c3cccc(Cl)c3)c2=O)CC(C)O1` (configuration not stated), the intracellular bacterial bioluminescence was inactive: 120%.

Turning to `O=C(Cn1ncn2nc(-c3ccccc3)cc2c1=O)NCC1CCCO1` (configuration not stated), the intracellular bacterial bioluminescence is inactive: 86.3%.

`O=C(NCC1CCCO1)C1CCCN(c2nccnc2Oc2ccccc2)C1` (configuration not stated): the intracellular bacterial bioluminescence is inactive: 93%.

As for `O=C(NCCCc1ccccc1)C(=O)NC1CCCC1`, the intracellular bacterial bioluminescence is inactive: 107%.

In the case of `Cc1ccc(NC(=O)CN2C(=O)C(=O)c3ccccc32)c(C)c1`, the intracellular bacterial bioluminescence is inactive: 90.9%.

In the case of `Cc1cc(=O)n2nc(NCc3ccc(C(=O)NCc4ccccc4F)cc3)nc2[nH]1`, the intracellular bacterial bioluminescence was inactive: 123%.

As to `CCc1ccc(NC(=O)C2CC3CSCN3C23C(=O)N(CC)c2ccccc23)cc1` (configuration not stated), the intracellular bacterial bioluminescence was inactive: 89.9%.

For `CCSc1nsc(NC(=O)Nc2ccc(OC)c(OC)c2)n1`, the intracellular bacterial bioluminescence is inactive: 70%.

With `COC(=O)C1=C(NC(=O)c2cccc([N+](=O)[O-])c2)CCS1`, the intracellular bacterial bioluminescence was inactive: 80.4%.

Consider `O=C(NCc1cccnc1)c1cnc(N2CCCCC2)c2ccccc12`, for which the intracellular bacterial bioluminescence was inactive: 106%.

In the case of `COc1ccc2c(c1)c1nnc(SCC(=O)NC3CCCCC3C)nc1n2C` (configuration not stated), the intracellular bacterial bioluminescence is inactive: 83.2%.

For the compound `Cc1nc2cc(-c3noc(C(C)Oc4ccccc4)n3)ccc2n(C)c1=O` (configuration not stated), the intracellular bacterial bioluminescence was inactive: 117%.

For the compound `CCOC(=O)c1ccc(NC(=O)/N=c2\c3ccccc3[nH]c(=O)n2C(C)C)cc1`, the intracellular bacterial bioluminescence is inactive: 94.1%.

As to `COc1ccc(CCNC(=O)c2cnc3sccn3c2=O)cc1OC`, the intracellular bacterial bioluminescence was inactive: 89.4%.

With `COc1cc(OC)cc(C(=O)NNc2nc3ccc(Cl)cc3s2)c1`, the intracellular bacterial bioluminescence is inactive: 69.5%.

For `COc1ccc(OC)c(C(=O)CSc2nnc3ncccn23)c1`, the intracellular bacterial bioluminescence is inactive: 110%.

As for `O=C(CSc1nc(-c2ccco2)nc2cc(=O)[nH]n12)NCC1CCCO1` (configuration not stated), the intracellular bacterial bioluminescence was inactive: 121%.

With `COc1ccc(CC(=O)n2nc(-c3ccccc3Cl)nc2N)cc1OC`, the intracellular bacterial bioluminescence is inactive: 110%.

For the compound `COc1ccc(-c2ccc(SCC(=O)Nc3c[nH]c(=O)[nH]c3=O)nn2)cc1`, the intracellular bacterial bioluminescence was inactive: 114%.

As for `O=C(CN1CCC(C(=O)c2ccc(F)cc2)CC1)Nc1cccc2ccccc12`, the intracellular bacterial bioluminescence is inactive: 94.1%.

As for `COc1cc(-c2noc(CCCn3c(=O)[nH]c4cc5c(cc4c3=O)OCO5)n2)ccc1OC(C)C`, the intracellular bacterial bioluminescence is inactive: 105%.

Regarding `Cc1nn(-c2ccc3nncn3n2)c2c1C(c1ccccc1OC1CCCC1)CC(=O)N2` (configuration not stated), the intracellular bacterial bioluminescence is inactive: 74.7%.

Consider `Cc1oc2nc(SCC(=O)NC3CCCCC3)nc(N)c2c1C`, for which the intracellular bacterial bioluminescence was inactive: 91.7%.

With `COc1ccc(NS(=O)(=O)c2ccc(CCN3C(=O)c4cccc5cccc(c45)C3=O)cc2)cc1`, the intracellular bacterial bioluminescence was inactive: 89.1%.

Turning to `Cc1cccc(Oc2ncnc(N)c2[N+](=O)[O-])c1C`, the intracellular bacterial bioluminescence was inactive: 90.4%.

For the compound `CC(C)(C)C1=NN(CC(=O)Nc2nccs2)C(=O)c2cc3ccccc3n2C1`, the intracellular bacterial bioluminescence is inactive: 118%.

As to `COc1ccc(/C=C2/SC(Nc3cccnc3)=NC2=O)cc1OC`, the intracellular bacterial bioluminescence was inactive: 90.4%.

On to `COc1ccc2cc(C(N)=O)/c(=N/c3cccc(C)c3)oc2c1`, for which the intracellular bacterial bioluminescence is inactive: 61.2%.

Turning to `CCc1ccc(N(CC(=O)Nc2ccccc2OC)C2=NC3CS(=O)(=O)CC3S2)cc1` (configuration not stated), the intracellular bacterial bioluminescence was inactive: 86.5%.

Consider `COc1cc(C(=O)N2CCN=C2SCc2ccc([N+](=O)[O-])cc2)cc(OC)c1OC`, for which the intracellular bacterial bioluminescence is inactive: 23%.

Turning to `O=C(c1ccccc1F)N1CCc2c(nc(N3CCOCC3)[nH]c2=O)C1`, the intracellular bacterial bioluminescence was inactive: 96.6%.

Consider `Cc1ccc(C(=O)CSc2nccn(-c3ccc(Cl)cc3)c2=O)cc1`, for which the intracellular bacterial bioluminescence was inactive: 105%.

As to `COc1cc(OC)c(NC(=O)c2c(-c3ccccc3)nnc3ccc(C)cc23)cc1Cl`, the intracellular bacterial bioluminescence was inactive: 118%.

Turning to `Cc1nc(OCC(=O)Nc2cc(F)ccc2F)c2c(C)c(C)oc2n1`, the intracellular bacterial bioluminescence was inactive: 71%.

On to `Cc1cccn2c(=O)nc(SCc3c(F)cccc3Cl)nc12`, for which the intracellular bacterial bioluminescence is inactive: 80.3%.

Take `CCOC(=O)c1nc(NC(C)c2ccccc2)c2c(-c3ccc(F)cc3)noc2n1` (configuration not stated): the intracellular bacterial bioluminescence was inactive: 55.2%.

Consider `NC(=O)c1nc(Nc2ccccc2)sc1NC(=O)Cc1cccs1`, for which the intracellular bacterial bioluminescence is inactive: 81.9%.

As to `CC(=O)N1CCCN(C(=O)c2ncoc2-c2ccc(F)cc2)CC1`, the intracellular bacterial bioluminescence was inactive: 93.5%.

For the compound `Cc1nc(N2CCC(C(=O)NCCc3ccc(Cl)cc3)CC2)c2c(C)c(C)oc2n1`, the intracellular bacterial bioluminescence was inactive: 35.3%.

On to `Cc1cccc(C2CCCN2C(=O)c2cnn3cc(Br)cnc23)c1` (configuration not stated), for which the intracellular bacterial bioluminescence is inactive: 105%.

Consider `COC(=O)c1ccc(C(=O)Nc2ccc(N3CCC(C)CC3)c(C(N)=O)c2)s1`, for which the intracellular bacterial bioluminescence is inactive: 89.1%.

As for `S=C(NCc1ccccc1)N1CCCC(c2nc3ccccc3[nH]2)C1` (configuration not stated), the intracellular bacterial bioluminescence is inactive: 114%.

With `COc1ccc(OC)c(S(=O)(=O)NC(=N)NCCc2ccccc2OC)c1`, the intracellular bacterial bioluminescence is inactive: 77%.

As for `O=C1c2ccccc2C(=O)N1CNc1ccccc1Cl`, the intracellular bacterial bioluminescence is inactive: 93.8%.

Turning to `COC(=O)c1ccccc1NC(=O)CSc1nc(N)cc(=O)[nH]1`, the intracellular bacterial bioluminescence was inactive: 90.3%.

Consider `Cc1cc(-c2csc(S(=O)(=O)N3CCC(Cc4ccccc4)CC3)c2)on1`, for which the intracellular bacterial bioluminescence is inactive: 64.5%.

For `Cc1nc2cccc(NC(=O)COc3ncnc4ccccc34)c2[nH]1`, the intracellular bacterial bioluminescence is inactive: 19%.

On to `CN(Cc1ccccc1)C(=O)CCn1cnc2c(-c3ccc(F)cc3)noc2c1=O`, for which the intracellular bacterial bioluminescence is inactive: 66.3%.

Turning to `S=C(Nc1ccccc1)N1CCC(n2cnc3ccccc32)CC1`, the intracellular bacterial bioluminescence was inactive: 124%.

For the compound `CCn1c(=O)c(N2CCN(C(=O)COc3ccc(F)cc3)CC2)c(C)n(-c2ccccc2)c1=O`, the intracellular bacterial bioluminescence is inactive: 133%.

As for `N#Cc1c(NC(=O)CCSCCC(=O)Nc2sc3c(c2C#N)CCC3)sc2c1CCC2`, the intracellular bacterial bioluminescence is inactive: 125%.

Consider `O=C(NCc1cccc(F)c1)c1cnn2c(=O)c3c([nH]c12)CCCC3`, for which the intracellular bacterial bioluminescence was inactive: 107%.

Consider `O=C(NCc1ccc(F)cc1)C(=O)c1c[nH]c2ccccc12`, for which the intracellular bacterial bioluminescence was inactive: 62.5%.

Turning to `CCOC(=O)c1sc2nc(NC(=O)c3nc4ccccc4s3)sc2c1C`, the intracellular bacterial bioluminescence was inactive: 90.8%.

For `CCc1nc2ccc(C(=O)NCc3n[nH]c4c3CCCC4)cc2nc1CC`, the intracellular bacterial bioluminescence was inactive: 66.6%.

Take `COc1ccc(C(=O)C2CCN(CC(=O)Nc3ccc4c(c3)OCCO4)CC2)cc1`: the intracellular bacterial bioluminescence is inactive: 111%.

For `CCSc1nc2c(c(=O)[nH]1)C(c1cccc(Br)c1)C(C(=O)OC(C)C)=C(C)N2` (configuration not stated), the intracellular bacterial bioluminescence was inactive: 89.3%.

In the case of `Cc1nc(C#N)c(N/N=C/C=C/c2ccccc2)o1`, the intracellular bacterial bioluminescence was inactive: 76.2%.

Turning to `CCn1c(N2CCN(CC(=O)Nc3c(C)cccc3C)CC2)nc2ccccc21`, the intracellular bacterial bioluminescence was inactive: 145%.

For the compound `O=C(CSc1ncnc2c1cnn2-c1ccc(Cl)cc1)Nc1ccc2c(c1)OCCO2`, the intracellular bacterial bioluminescence is inactive: 89.4%.

As for `Cc1ccc2c(cnn2C(=O)NCCc2ccccc2)c1`, the intracellular bacterial bioluminescence is inactive: 58.3%.

In the case of `Cc1ccc(Cn2c(CCCC(=O)NCCN(C)C)nc3cccnc32)cc1`, the intracellular bacterial bioluminescence was inactive: 106%.

With `CCOc1ccccc1NC(=O)c1nn(C)c(C(F)(F)F)c1Cl`, the intracellular bacterial bioluminescence is inactive: 115%.

As to `Cc1ccc(C)c(N2CCN(c3c4c(nc5nc(C)nn35)CCCC4)CC2)c1`, the intracellular bacterial bioluminescence is inactive: 46.9%.

In the case of `c1ccn(-c2ncnc3sc4c(c23)CCCC4)c1`, the intracellular bacterial bioluminescence is inactive: 94.1%.

Consider `O=C(CN1C(=O)c2cccc3cccc(c23)C1=O)Nc1nc2ccccc2s1`, for which the intracellular bacterial bioluminescence was inactive: 104%.

For `Cc1c(Cl)ccc2sc(N3CCN(C(=O)/C=C/c4cccc([N+](=O)[O-])c4)CC3)nc12`, the intracellular bacterial bioluminescence is inactive: 77.8%.

In the case of `O=C(NCc1ccccn1)C(=O)NCC(c1cccs1)N1CCc2ccccc21` (configuration not stated), the intracellular bacterial bioluminescence was inactive: 77.9%.

As for `CC(=O)N(Cc1cccnc1)c1nc2cc3c(cc2s1)OCCO3`, the intracellular bacterial bioluminescence was inactive: 86.1%.

Turning to `Cc1ccc(C)c(NC(=O)Cn2c(=O)n(Cc3ccco3)c(=O)c3sc4ccccc4c32)c1`, the intracellular bacterial bioluminescence is inactive: 104%.

On to `CCCSc1nc2c(c(=O)[nH]1)C(c1ccc(C)o1)C1=C(CCCC1=O)N2` (configuration not stated), for which the intracellular bacterial bioluminescence is inactive: 101%.

Take `COC(=O)c1c(-c2ccc(F)cc2)noc1Nc1cc(C)ccc1OC`: the intracellular bacterial bioluminescence was inactive: 106%.

For `Cn1c(=O)c2c(nc3oc(-c4ccc(F)cc4)cn32)n(C)c1=O`, the intracellular bacterial bioluminescence was inactive: 100%.

`O=C1CCc2cc(S(=O)(=O)N3CCCC(CN4CCCC4)C3)ccc2N1` (configuration not stated): the intracellular bacterial bioluminescence is inactive: 146%.

`CCCC1N=C2c3ccccc3N=C(SC(C)C(=O)Nc3ccccc3)N2C1=O` (configuration not stated): the intracellular bacterial bioluminescence is inactive: 96.2%.

On to `COc1ccc2c(c1OC)C(=O)N(c1n[nH]c(SC)n1)C2=O`, for which the intracellular bacterial bioluminescence is inactive: 81.3%.

For the compound `COc1ccc([N+](=O)[O-])cc1/C=C(\C#N)c1nc(-c2cc3ccccc3oc2=O)cs1`, the intracellular bacterial bioluminescence was inactive: 114%.

As for `CCNC(=O)c1cc2c(=O)n3ccccc3nc2n(Cc2ccc(OC)cc2)c1=N`, the intracellular bacterial bioluminescence was inactive: 96.2%.

As for `CCN(CC)C(=O)c1sc2nc3cc(C)c(C)cc3cc2c1N`, the intracellular bacterial bioluminescence is inactive: 80%.

For the compound `CCOc1cc(-c2nc3ccc(C)cn3c2NCC2CCCO2)ccc1O` (configuration not stated), the intracellular bacterial bioluminescence was inactive: 85.8%.

As to `CCc1cc(Sc2nnc(NC(=O)Nc3cccc(Cl)c3)s2)n2ncnc2n1`, the intracellular bacterial bioluminescence was inactive: 93.1%.

For the compound `Cc1nc2ccc(NC(=S)NC(=O)CN3C(=O)CCC3=O)cc2s1`, the intracellular bacterial bioluminescence was inactive: 65.8%.

The values are drawn from the supplement of paper PMC12578635.
